Some results were stated once for a whole list of compounds, not compound by compound. Some ranges recur; such a range may be that of the whole group of compounds.
What was measured:
[1] = test system: Formalin Test (pain behaviors); experiment: Formalin Test (pain behaviors); assay type: in vivo, rat; settings: relative to vehicle control; doses of 3 to 30 mg/kg, intraperitoneal route; one range for all listed compounds
[2] = test system: Partial Sciatic Nerve Ligation (PSNL) model; experiment: Partial Sciatic Nerve Ligation (PSNL) model, behavioral tests; assay type: in vivo, male Sprague-Dawley rats; settings: for recovery (paw pressure test) / recovery (plantar test) / recovery (weight bearing): one range for both compounds; for reversal of the tactile allodynia: normally expected at 2 hours post dose
Excerpt: 250-350 g male Sprague-Dawley rats from appropriate animal resources were anesthetized with 2.5% isoflurane. A hind leg was shaved, and the skin was sterilized with 0.5% iodine and 75% alcohol. All surgical instruments were sterilized before surgery and between animals. An incision (1 cm) was made at the middle of the thigh in parallel with the muscle and sciatic nerve distribution. The muscle was exposed and dissected at the joint of two muscles (biceps femoris) indicated by the light colored (white) fascia line. The sciatic nerve was just beneath the muscle and was hooked out using an 18-20 G feeding needle (90 degree curved); the sciatic nerve was flat on the feeding needle and approximately one-half the diameter of the nerve is tightly ligated with 7-0 silk suture. A response of the injured leg twitch indicates the success of ligation. After checking hemostasis, bupivicaine 0.1-0.2 ml (0.125%) was given at the incision area, the muscle and the adjacent fascia are closed with 5-0 absorbable sutures. The skin was sutured with absorbable suture and tissue glue. The control group using sham surgery animals (about 8-10 animals) underwent the same surgical procedure but with no nerve ligation. Animals were returned to their home cage after recovery from anesthesia.
(§1) The analgesic effect of the test compound was expressed as a percent recovery (% Recovery) relative to the sham control group baseline and calculated according to the formula:
(§2) % Recovery=100%−{[(sham mean−test compound mean)/(sham mean−vehicle mean)]×100%}
(§3) wherein “sham mean” refers to average score in the sham-operated group; “test compound mean” refers to average score in the PSNL-group (animals with partial sciatic nerve ligation) or diabetic group (animals treated with STZ) treated with a test compound; “vehicle mean” refers to average score in the PSNL-group or diabetic group treated with vehicle only. The above formula was used to obtain data for the following in vivo behavioral tests.
(§4) The following behavioral tests were conducted (i.e., plantar test, paw pressure test, and von Frey test) started on day 3 and thereafter once weekly following surgery or use of a diabetic inducer. The test compound was tested starting at week 1 in the PSNL model and at week 5 in the diabetic neuropathy model to evaluate therapeutic effect on the established neuropathic chronic pain.
(§5) Rats were placed on the glass surface of a thermal testing apparatus (Model 336, IITC/Life Science Instruments, Woodland Hills, Calif.) and were allowed to acclimate for 10 min before testing on the glass surface at room temperature. The animals were placed in chambers with the temperature of the glass surface maintained constant at 30-32° C. A mobile radiant heat source located under the glass is focused onto the hindpaw of each rat. The device was set at 55% (heating rate ˜3° C. per sec) heating intensity with a cut-off at 10 sec. The paw withdrawal latency was recorded by a digital timer. The thermal threshold was determined as the mean withdrawal latency from two to three consecutive trials of both hindpaws. The cutoff of 10 s was used to prevent potential tissue damage.
(§6) The test was performed by applying a noxious (painful) pressure to the hindpaw. By pressing a pedal that activates a motor, the force was increased (32 g/s) on a linear scale. […] At least two trials, separated by 10 min, were performed in each rat, and the mean value was used. A testing session for a particular rat began after 5 min of habituation or as soon as the rat stopped exploring and appeared acclimatized to the testing environment.
Animals were placed under clear plastic boxes above a wire mesh floor, which allowed full access to the paws. Behavioral acclimation was allowed for at least 5 min. Mechanical paw withdrawal thresholds (PWTs) were measured with the up-down testing paradigm. […]

[3] = test system: Acetic Acid Writhing Model; experiment: Writhing Model (Inflammatory Abdominal Pain), mice; assay type: in vivo; settings: C57 mice, one range for all listed compounds
[4] = test system: streptozotocin (STZ)-induced diabetic model; experiment: Streptozotocin (STZ)-Induced Model of Diabetic Neuropathy, behavioral tests; assay type: in vivo, male Sprague-Dawley rats; settings: for recovery (paw pressure test) / recovery (plantar test): 30 mg/kg intraperitoneal or oral route, one range for both compounds; for reversal of the tactile allodynia: expected after 9 days of repeated dosing
Experimental: 250-350 g male Sprague-Dawley rats from appropriate animal resources were used. Type I diabetes was induced by a single injection, (intraperitoneally, intravenously or intramuscularly) of 50-100 mg/kg of streptozotocin (STZ, Sigma Chemicals, St. Louis, Mo. or VWR) freshly dissolved in sodium citrate (0.01 M, pH 4.5). Sham animals were given either saline or same vehicle injection. Following a wait time of about two days, inducement of diabetes was confirmed in STZ-injected rats by measuring the plasma glucose concentrations in blood samples from the tail vein after a fast of 6 hours. The glucose level was assayed using a mini glucose monitor (kit for AlphaTRAK 2 meter, available from Abbott Laboratories). Screening for hyperglycemia in STZ-injected animals was done, with only animals with a final blood glucose level ≧300 mg/dl being selected for the study. Glucose levels in the sham animals remained normal. Other parameters (water intake, food intake, and bodyweight) were monitored before the treatment with a test compound and after the cessation of the treatment.
as §1, §2, §3, §4, §5, §6
Animals were placed under clear plastic boxes above a wire mesh floor, which allowed full access to the paws. Behavioral acclimation was allowed for at least 5 min. Mechanical paw withdrawal thresholds (PWTs) were measured with the up-down testing paradigm. Von Frey filaments in log increments of force (2.0, 4.0, 6.0, 8.0, 10.0, 15.0, 26, 60 g or size 4.31, 4.56, 4.74, 4.93, 5.07, 5.18, 5.46, 5.88) were applied for a duration of 2-3 s to the mid-plantar paw in neuropathic pain (e.g., PSNL or diabetic) animals. Application was to the central region of the plantar surface avoiding the foot pads. […]

## O=C(O)CCNC(=O)c1cc(-c2cc(Cl)ccc2Oc2cc(F)c(S(=O)(=O)Nc3ncns3)cc2Cl)ccn1 [Compound 1, 3-(4-(2-(4-(N-(1,2,4-thiadiazol-5-yl)sulfamoyl)-2-chloro-5-fluorophenoxy)-5-chlorophenyl)picolinamido)propanoic acid]
[1]
  reduction in pain response (formalin assay phase 2): 29-73%
  reduction in pain response (formalin assay, phase 1): 24-78%
[2]; 30 mg/kg intraperitoneal route
  recovery (paw pressure test): 49-62%
  recovery (plantar test): 59-73%
  recovery (weight bearing): 50-66%

## O=C(O)CNC(=O)c1cc(-c2cc(Cl)ccc2Oc2cc(F)c(S(=O)(=O)Nc3ncns3)cc2Cl)ccn1 [Compound 2, 2-(4-(2-(4-(N-(1,2,4-thiadiazol-5-yl)sulfamoyl)-2-chloro-5-fluorophenoxy)-5-chlorophenyl)picolinamido)acetic acid]
[3]; 30 mg/kg intraperitoneal route
  reduction in pain (writhing): 54-75%
[3]; 30 mg/kg oral route
  reduction in pain (writhing): 37-47%
[1]
  reduction in pain response (formalin assay phase 2): 29-73%
  reduction in pain response (formalin assay, phase 1): 24-78%
[2]; 30 mg/kg intraperitoneal route
  recovery (paw pressure test): 49-62%
  recovery (plantar test): 59-73%
  recovery (weight bearing): 50-66%

## C[C@@H](NC(=O)c1cc(-c2cc(Cl)ccc2Oc2cc(F)c(S(=O)(=O)Nc3ncns3)cc2Cl)ccn1)C(=O)O [Compound 6, (R)-2-(4-(2-(4-(N-(1,2,4-thiadiazol-5-yl)sulfamoyl)-2-chloro-5-fluorophenoxy)-5-chlorophenyl)picolinamido)propanoic acid]
[1]
  reduction in pain response (formalin assay phase 2): 29-73%
  reduction in pain response (formalin assay, phase 1): 24-78%

## C[C@H](NC(=O)c1cc(-c2cc(Cl)ccc2Oc2cc(F)c(S(=O)(=O)Nc3ncns3)cc2Cl)ccn1)C(=O)O [Compound 8, (S)-2-(4-(2-(4-(N-(1,2,4-thiadiazol-5-yl)sulfamoyl)-2-chloro-5-fluorophenoxy)-5-chlorophenyl)picolinamido)propanoic acid]
[1]
  reduction in pain response (formalin assay phase 2): 29-73%
  reduction in pain response (formalin assay, phase 1): 24-78%

## O=C(O)CCNCCCc1cc(Cl)ccc1Oc1cc(F)c(S(=O)(=O)Nc2ncns2)cc1Cl [Compound 12, 3-((3-(2-(4-(N-(1,2,4-thiadiazol-5-yl)sulfamoyl)-2-chloro-5-fluorophenoxy)-5-chlorophenyl)propyl)amino)propanoic acid]
[1]
  reduction in pain response (formalin assay phase 2): 29-73%
  reduction in pain response (formalin assay, phase 1): 24-78%

## O=C(O)CCNCCCc1cc(Cl)ccc1Oc1cc(F)c(S(=O)(=O)Nc2cscn2)cc1Cl [Compound 15, 3-((3-(5-chloro-2-(2-chloro-5-fluoro-4-(N-(thiazol-4-yl)sulfamoyl)phenoxy)phenyl)propyl)amino)propanoic acid]
[3]; 30 mg/kg intraperitoneal route
  reduction in pain (writhing): 54-75%
[3]; 30 mg/kg oral route
  reduction in pain (writhing): 37-47%
[4]
  recovery (paw pressure test): 66-68%
  recovery (plantar test): 93-100%
  reversal of the tactile allodynia: Up to 90%

## NC(=O)CNCCCc1cc(Cl)ccc1Oc1cc(F)c(S(=O)(=O)Nc2cscn2)cc1Cl [Compound 49, 2-((3-(5-chloro-2-(2-chloro-5-fluoro-4-(N-(thiazol-4-yl)sulfamoyl)phenoxy)phenyl)propyl)amino)acetamide]
[3]; Method B, 10 mg/kg oral route
  reduction in pain (writhing): 25-35%
[3]; 30 mg/kg intraperitoneal route
  reduction in pain (writhing): 54-75%
[3]; 30 mg/kg oral route
  reduction in pain (writhing): 37-47%
[2]; 10 mg/kg oral route
  recovery (paw pressure test): 28-32%
  recovery (plantar test): 54-63%
  recovery (weight bearing): 40-65%
[2]; 30 mg/kg oral route
  recovery (paw pressure test): 64-85%
  recovery (plantar test): 81-90%
  recovery (weight bearing): 64-75%
[2]
  reversal of the tactile allodynia: Up to 90%
[4]
  recovery (paw pressure test): 66-68%
  recovery (plantar test): 93-100%
  reversal of the tactile allodynia: Up to 90%

## CCCCCOC(=O)N(CCCc1cc(Cl)ccc1Oc1cc(F)c(S(=O)(=O)Nc2nccs2)cc1Cl)CC(=O)O [Compound 53, 2-((3-(5-chloro-2-(2-chloro-5-fluoro-4-(N-(thiazol-2-yl)sulfamoyl)phenoxy)phenyl)propyl)((pentyloxy)carbonyl)amino)acetic acid]
[3]; Method B, 10 mg/kg oral route
  reduction in pain (writhing): 25-35%
[3]; 30 mg/kg intraperitoneal route
  reduction in pain (writhing): 54-75%
[3]; 30 mg/kg oral route
  reduction in pain (writhing): 37-47%

## C#CCN(CCCc1cc(Cl)ccc1Oc1cc(F)c(S(=O)(=O)Nc2nccs2)cc1Cl)CC(=O)O [Compound 54, 2-((3-(5-chloro-2-(2-chloro-5-fluoro-4-(N-(thiazol-2-yl)sulfamoyl)phenoxy)phenyl)propyl)(prop-2-yn-1-yl)amino)acetic acid]
[3]; Method B, 10 mg/kg oral route
  reduction in pain (writhing): 25-35%
[3]; 30 mg/kg intraperitoneal route
  reduction in pain (writhing): 54-75%
[3]; 30 mg/kg oral route
  reduction in pain (writhing): 37-47%
[2]; 10 mg/kg oral route
  recovery (paw pressure test): 28-32%
  recovery (plantar test): 54-63%
  recovery (weight bearing): 40-65%
[2]; 30 mg/kg oral route
  recovery (paw pressure test): 64-85%
  recovery (plantar test): 81-90%
  recovery (weight bearing): 64-75%
[2]
  reversal of the tactile allodynia: Up to 90%

From US20160221974A1, “SODIUM CHANNEL MODULATORS FOR THE TREATMENT OF PAIN AND DIABETES” (CHROMOCELL CORPORATION, priority 2013, published 2016)
